B1: COQ7 (enzyme, UniProt Q99807 36-217)
chain: SSGMTLDNISRAAVDRIIRVDHAGEYGANRIYAGQMAVLGRTSVGPVIQKMWDQEKDHLKKFNELMVTFRVRPTVLMPLWNVLGFALGAGTALLGKEGAMACTVAVEESIAHHYNNQIRTLMEEDPEKYEELLQLIKKFRDEELEHHDIGLDHDAELAPAYAVLKSIIQAGCRVAIYLSERL

Chains of the proteins cited; added tags and fusions are not shown. Lines headed by an entry give the natural chain unless they say otherwise; changes in a name come on top. Residues count along the entry.
UniProt Q16740: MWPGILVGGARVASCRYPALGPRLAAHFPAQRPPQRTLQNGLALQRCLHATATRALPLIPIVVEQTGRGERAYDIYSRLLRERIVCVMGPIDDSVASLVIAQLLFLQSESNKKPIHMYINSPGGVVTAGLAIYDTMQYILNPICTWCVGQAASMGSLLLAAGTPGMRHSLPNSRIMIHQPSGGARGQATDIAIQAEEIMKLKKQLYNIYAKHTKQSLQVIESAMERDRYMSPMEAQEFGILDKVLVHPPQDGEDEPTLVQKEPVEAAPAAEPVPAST
UniProt Q96CB9, residues 26-384: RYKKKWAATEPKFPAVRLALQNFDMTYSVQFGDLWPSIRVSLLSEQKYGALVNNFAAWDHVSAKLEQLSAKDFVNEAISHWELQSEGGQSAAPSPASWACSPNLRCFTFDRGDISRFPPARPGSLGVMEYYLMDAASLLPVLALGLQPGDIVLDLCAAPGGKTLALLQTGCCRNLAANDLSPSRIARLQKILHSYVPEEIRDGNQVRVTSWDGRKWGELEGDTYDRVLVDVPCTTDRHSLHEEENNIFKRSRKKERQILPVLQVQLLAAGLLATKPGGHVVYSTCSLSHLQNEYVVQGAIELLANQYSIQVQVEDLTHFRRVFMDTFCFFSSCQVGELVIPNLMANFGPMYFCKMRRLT
UniProt O75127: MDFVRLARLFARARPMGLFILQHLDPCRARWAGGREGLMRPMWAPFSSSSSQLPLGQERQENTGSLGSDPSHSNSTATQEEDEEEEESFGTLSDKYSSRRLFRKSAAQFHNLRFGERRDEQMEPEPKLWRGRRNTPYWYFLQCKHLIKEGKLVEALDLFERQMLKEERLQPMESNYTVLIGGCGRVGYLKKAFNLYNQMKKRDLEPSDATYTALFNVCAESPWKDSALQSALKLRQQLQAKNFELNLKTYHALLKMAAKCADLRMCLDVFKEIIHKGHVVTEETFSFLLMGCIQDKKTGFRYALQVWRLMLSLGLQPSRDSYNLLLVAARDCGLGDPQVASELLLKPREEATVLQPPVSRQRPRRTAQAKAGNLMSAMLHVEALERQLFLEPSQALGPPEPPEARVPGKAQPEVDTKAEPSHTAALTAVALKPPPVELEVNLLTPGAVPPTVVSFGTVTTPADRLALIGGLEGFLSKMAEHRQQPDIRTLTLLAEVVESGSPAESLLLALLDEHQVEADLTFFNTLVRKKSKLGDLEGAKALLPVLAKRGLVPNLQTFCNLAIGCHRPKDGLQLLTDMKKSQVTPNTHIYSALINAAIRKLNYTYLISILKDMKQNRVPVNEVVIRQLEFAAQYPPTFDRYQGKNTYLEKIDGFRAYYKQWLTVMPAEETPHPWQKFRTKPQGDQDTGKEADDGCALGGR

These are yes or no findings as the source states them, for the method shown. Binding seen in cells or lysates may run through a third protein. Here binding means that the protein was enriched with, or labelled near, the bait; the list need not be complete.

The target of the assay is survivin (human (endogenous in PC3)) (UniProt O15392). In words: affinity purification with mass spectrometry; PC3 mitochondrial extracts precipitated with an antibody to survivin or control IgG; proteomics identification, two independent replicates per condition.
On to “ClpP, AAA+ peptidase subunit of the ClpXP complex (from UniProt Q16740 57-277) (enzyme)”, for which the binding entry was “binds”.
As for “NSUN4 (from UniProt Q96CB9 26-384) (enzyme)”, the entry is “binds”; as for PTCD1 (from UniProt O75127 1-700), “binds”.
Under B1 stands “binds”.

For the origin of these results see publication PMC4936714.
